# PubChem BioAssay AID1053208 | Peter MacCallum Cancer Centre, 2014
# Screen: 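Find knock-downs that sensitise mouse osteosarcoma cells to doxorubicin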 (primary screen)
# Cells: mouse osteosarcoma cells, early-passage culture from an engineered mouse model of fibroblastic bone tumour
# Knock-down reagent: siRNA pool against mouse genes, 40 nM
# Timing: about 120 h (48 h before drug, then 72 h with drug)
# Conditions: doxorubicin 100 nM for 72 h, roughly 30-40% inhibitory dose
# Detection: 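Luminescent ATP signal taken as viability with or without 100 nM doxorubicin for 72 h; mean of two wells set against non-targeting siRNA and turned into robust z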
# Reading the numbers: viability z-score with doxorubicin and doxorubicin viability vs non-targeting: higher = more viable cells under doxorubicin; viability z-score without drug: higher = more viable cells with knock-down alone; z-score of drug to no-drug ratio: higher = less drug sensitisation by knock-down
# Hit rule: 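Called active if knock-down leaves viability unchanged without drug (z within -2 to 2) but lowers it with doxorubicin (z at or under -2)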
# Here is one part, drawn at random, of about 17,000 reagents tested. In the full data, 788 (4.7%) were called active. 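Calls rest on z-score classes alone; an extra cut-off of viability at most 70% of control was not applied to them.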
The opening 2 records as a preview:
gene symbol,PubChem SID,combined z-score class,viability z-score with doxorubicin,viability z-score without drug,z-score of drug to no-drug ratio,doxorubicin viability vs non-targeting,activity call
Scpep1,SID152313486,no change with or without drug,0,0.17,0,0.94,inactive
Hhip,SID152314406,no change with or without drug,0.45,1.52,-0.45,0.98,inactive

Main list, from the start:
gene symbol,PubChem SID,combined z-score class,viability z-score with doxorubicin,viability z-score without drug,z-score of drug to no-drug ratio,doxorubicin viability vs non-targeting,activity call
Scpep1,SID152313486,no change with or without drug,0,0.17,0,0.94,inactive
Hhip,SID152314406,no change with or without drug,0.45,1.52,-0.45,0.98,inactive
Wnt7b,SID152320045,no change with or without drug,-1.24,-0.17,-1.12,0.83,inactive
Pcdhb21,SID152280462,no change with or without drug,-1.24,0.17,-1.35,0.83,inactive
Oaz1,SID152296893,no change with or without drug,0.45,0.84,0,0.98,inactive
Rap2a,SID152302740,no change with or without drug,-0.9,1.18,-1.57,0.86,inactive
Skil,SID152328081,no change with or without drug,0.56,-0.17,0.79,0.99,inactive
Naa80,SID152262336,no change with or without drug,0.67,-0.34,1.12,1,inactive
Dedd,SID152268841,no change with or without drug,0.9,-1.18,2.02,1.02,inactive
Krabd3,SID152307541,no change with or without drug,0.22,0.34,0.11,0.96,inactive
Pex1,SID152267804,no change with or without drug,0.45,0.17,0.45,0.98,inactive
Wfs1,SID152317859,no change with or without drug,-1.57,-0.51,-1.24,0.8,inactive
Kif27,SID152294946,high cell count without drug only,-1.8,2.36,-2.92,0.78,inactive
Tecr,SID152333776,no change with or without drug,0.22,0.51,0,0.96,inactive
Ube2j1,SID152298499,no change with or without drug,1.35,0.84,0.9,1.06,inactive
Add3,SID152268233,high cell count with and without drug,2.14,3.37,0,1.13,inactive
Phf2,SID152292111,no change with or without drug,0.67,0.51,0.45,1,inactive
Tnk2,SID152337487,no change with or without drug,0.22,0.34,0.11,0.96,inactive
Tacr2,SID152277785,no change with or without drug,0.11,0.67,-0.22,0.95,inactive
Dph3,SID152319934,no change with or without drug,0.67,1.18,0,1,inactive
